Values from PubChem BioAssay AID1224830 (NIAID, 2016)
In all, the deposit lists about 18,000 reagents; below is an unselected part. About 2,900 of them (16%) count as active. 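Calls are made per well; low scores hint the gene aids the LPS response, high scores that it dampens it.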 Repeated entries: four replicate wells of each siRNA pool.

Purpose: 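Regulators of TLR4 signalling towards TNF-alpha in macrophage-like cells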 (primary screen)
System: human THP-1 monocytic leukaemia cells, TNF dual-luciferase reporter clone, PMA-differentiated to macrophage-like cells
Reagents: siRNA pool against human genes, 50 nM
Time to read-out: LPS for 4 h, given about 3 days after siRNA transfection
Treatment: bacterial LPS (TLR4 ligand), 10 ng/ml
Read-out: 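TNF firefly reporter luminescence divided by renilla, normalised to the plate median, then turned into a robust z-score for each replicate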
Scale: TNF reporter robust z-score: higher = stronger TNF reporter response to LPS
Hit rule: 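Each well counts as active if its z-score is over 2.8 or under -1.5; controls are left without a call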

gene | PubChem SID | TNF reporter robust z-score | activity call
RENBP (GeneID 5973) | SID315451097 | -0.55 | inactive
RENBP (GeneID 5973) | SID315451097 | 0.43 | inactive
RENBP (GeneID 5973) | SID315451097 | -0.49 | inactive
RENBP (GeneID 5973) | SID315451097 | -0.56 | inactive
NFS1 (GeneID 9054) | SID315453005 | 1.07 | inactive
NFS1 (GeneID 9054) | SID315453005 | 0 | inactive
NFS1 (GeneID 9054) | SID315453005 | -0.96 | inactive
NFS1 (GeneID 9054) | SID315453005 | 0.44 | inactive
SLC2A9 (GeneID 56606) | SID315458089 | -0.76 | inactive
SLC2A9 (GeneID 56606) | SID315458089 | -1.11 | inactive
SLC2A9 (GeneID 56606) | SID315458089 | -0.37 | inactive
SLC2A9 (GeneID 56606) | SID315458089 | -0.31 | inactive
OSR1 (GeneID 130497) | SID315461861 | -0.75 | inactive
OSR1 (GeneID 130497) | SID315461861 | 0.04 | inactive
OSR1 (GeneID 130497) | SID315461861 | 0.69 | inactive
OSR1 (GeneID 130497) | SID315461861 | -0.17 | inactive
ZNF561 (GeneID 93134) | SID315461060 | -1.29 | inactive
ZNF561 (GeneID 93134) | SID315461060 | -1.25 | inactive
ZNF561 (GeneID 93134) | SID315461060 | -1.94 | active
ZNF561 (GeneID 93134) | SID315461060 | -0.95 | inactive
SLC22A4 (GeneID 6583) | SID315451516 | 0.12 | inactive
SLC22A4 (GeneID 6583) | SID315451516 | 0.71 | inactive
SLC22A4 (GeneID 6583) | SID315451516 | 1.88 | inactive
SLC22A4 (GeneID 6583) | SID315451516 | 0.1 | inactive
OR11H1 (GeneID 81061) | SID315459848 | -0.33 | inactive
OR11H1 (GeneID 81061) | SID315459848 | -0.58 | inactive
OR11H1 (GeneID 81061) | SID315459848 | -0.98 | inactive
OR11H1 (GeneID 81061) | SID315459848 | -0.35 | inactive
YBX3 (GeneID 8531) | SID315452631 | -2.07 | active
YBX3 (GeneID 8531) | SID315452631 | -1.34 | inactive
YBX3 (GeneID 8531) | SID315452631 | -1.03 | inactive
YBX3 (GeneID 8531) | SID315452631 | -0.98 | inactive
PLPP3 (GeneID 8613) | SID315452687 | -0.32 | inactive
PLPP3 (GeneID 8613) | SID315452687 | 0.13 | inactive
PLPP3 (GeneID 8613) | SID315452687 | 0.16 | inactive
PLPP3 (GeneID 8613) | SID315452687 | -0.6 | inactive
PRSS2 (GeneID 5645) | SID315450858 | -0.31 | inactive
PRSS2 (GeneID 5645) | SID315450858 | -0.03 | inactive
PRSS2 (GeneID 5645) | SID315450858 | 0.26 | inactive
PRSS2 (GeneID 5645) | SID315450858 | 0.23 | inactive
IFI16 (GeneID 3428) | SID315449400 | 1.41 | inactive
IFI16 (GeneID 3428) | SID315449400 | 1.27 | inactive
IFI16 (GeneID 3428) | SID315449400 | 0.97 | inactive
IFI16 (GeneID 3428) | SID315449400 | 1.62 | inactive
MMP3 (GeneID 4314) | SID315450000 | -0.58 | inactive
MMP3 (GeneID 4314) | SID315450000 | -0.43 | inactive
MMP3 (GeneID 4314) | SID315450000 | -0.49 | inactive
MMP3 (GeneID 4314) | SID315450000 | -0.55 | inactive

Active calls, among the entries above:
gene | PubChem SID | TNF reporter robust z-score | activity call
ZNF561 (GeneID 93134) | SID315461060 | -1.94 | active
YBX3 (GeneID 8531) | SID315452631 | -2.07 | active

Next entries follow.
gene | PubChem SID | TNF reporter robust z-score | activity call
MLLT11 (GeneID 10962) | SID315454493 | 0.43 | inactive
MLLT11 (GeneID 10962) | SID315454493 | -1.11 | inactive
MLLT11 (GeneID 10962) | SID315454493 | -0.15 | inactive
MLLT11 (GeneID 10962) | SID315454493 | 0.23 | inactive
SMPDL3B (GeneID 27293) | SID315456013 | 0.1 | inactive
SMPDL3B (GeneID 27293) | SID315456013 | -0.35 | inactive
SMPDL3B (GeneID 27293) | SID315456013 | -0.37 | inactive
SMPDL3B (GeneID 27293) | SID315456013 | -0.82 | inactive
N4BP1 (GeneID 9683) | SID315453478 | 0.87 | inactive
N4BP1 (GeneID 9683) | SID315453478 | 1.55 | inactive
N4BP1 (GeneID 9683) | SID315453478 | -0.21 | inactive
CYP2R1 (GeneID 120227) | SID315461491 | -0.74 | inactive
CYP2R1 (GeneID 120227) | SID315461491 | 0.09 | inactive
CYP2R1 (GeneID 120227) | SID315461491 | -0.16 | inactive
CYP2R1 (GeneID 120227) | SID315461491 | -0.19 | inactive
XPA (GeneID 7507) | SID315452161 | 0.28 | inactive
XPA (GeneID 7507) | SID315452161 | -1.07 | inactive
XPA (GeneID 7507) | SID315452161 | -1.18 | inactive
XPA (GeneID 7507) | SID315452161 | -0.58 | inactive
LARS1 (GeneID 51520) | SID315456754 | -0.53 | inactive
LARS1 (GeneID 51520) | SID315456754 | -0.03 | inactive
LARS1 (GeneID 51520) | SID315456754 | 0.1 | inactive
LARS1 (GeneID 51520) | SID315456754 | -0.41 | inactive
USP44 (GeneID 84101) | SID315460190 | 0.23 | inactive
USP44 (GeneID 84101) | SID315460190 | -0.41 | inactive
USP44 (GeneID 84101) | SID315460190 | 0.32 | inactive
USP44 (GeneID 84101) | SID315460190 | -0.12 | inactive
TPTE (GeneID 7179) | SID315451962 | 2.06 | inactive
TPTE (GeneID 7179) | SID315451962 | 1.95 | inactive
TPTE (GeneID 7179) | SID315451962 | 2.45 | inactive
TPTE (GeneID 7179) | SID315451962 | 3.88 | active
PRAMEF10 (GeneID 343071) | SID315464149 | 0.29 | inactive
PRAMEF10 (GeneID 343071) | SID315464149 | -0.64 | inactive
PRAMEF10 (GeneID 343071) | SID315464149 | 0.47 | inactive
PRAMEF10 (GeneID 343071) | SID315464149 | 0.82 | inactive
ZNF57 (GeneID 126295) | SID315461697 | 1.22 | inactive
ZNF57 (GeneID 126295) | SID315461697 | -0.47 | inactive
ZNF57 (GeneID 126295) | SID315461697 | 0.22 | inactive
ZNF57 (GeneID 126295) | SID315461697 | -0.11 | inactive
HMGB4 (GeneID 127540) | SID315461758 | -0.33 | inactive
HMGB4 (GeneID 127540) | SID315461758 | 0.94 | inactive
HMGB4 (GeneID 127540) | SID315461758 | 0.97 | inactive
HMGB4 (GeneID 127540) | SID315461758 | 1.19 | inactive
GNG5 (GeneID 2787) | SID315448954 | 0.2 | inactive
GNG5 (GeneID 2787) | SID315448954 | 0.01 | inactive
GNG5 (GeneID 2787) | SID315448954 | -0.11 | inactive
GNG5 (GeneID 2787) | SID315448954 | 0.29 | inactive
SSX1 (GeneID 6756) | SID315451659 | -0.56 | inactive
SSX1 (GeneID 6756) | SID315451659 | -0.1 | inactive
SSX1 (GeneID 6756) | SID315451659 | -0.4 | inactive
SSX1 (GeneID 6756) | SID315451659 | -1.14 | inactive
H4C1 (GeneID 8359) | SID315452510 | -0.54 | inactive
H4C1 (GeneID 8359) | SID315452510 | -1.05 | inactive
H4C1 (GeneID 8359) | SID315452510 | -0.25 | inactive
CPA1 (GeneID 1357) | SID315448060 | -1.07 | inactive
CPA1 (GeneID 1357) | SID315448060 | 1.72 | inactive
CPA1 (GeneID 1357) | SID315448060 | -0.95 | inactive
CPA1 (GeneID 1357) | SID315448060 | 0.93 | inactive
PLAC8 (GeneID 51316) | SID315456641 | -0.88 | inactive
PLAC8 (GeneID 51316) | SID315456641 | -0.92 | inactive
PLAC8 (GeneID 51316) | SID315456641 | -0.81 | inactive
PLAC8 (GeneID 51316) | SID315456641 | -0.67 | inactive
